From PubChem BioAssay record AID504749 (NCATS, 2011).

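Malaria parasite (P. falciparum) lines kept in red blood cells; parasite DNA is measured by SYBR Green fluorescence after lysis, 72 h after compound addition.
Each compound was titrated across a series from about 0.000037 to 29 µM.
The number is the fitted AC50, the concentration giving a half-maximal change in signal; a lower value means higher potency, whether the curve shows a decrease or an increase.
Calls follow the curve class and fit quality: every row here is inconclusive, covering signal-raising curves and weak, poorly fitted, partial or highest-dose-only inhibition curves.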

Values are in µM.
Every entry below has the call inconclusive.
Only part of the assay is shown, chiefly results filed as inconclusive.
A potency from a partial, single-point or poor curve is only a rough figure.

| SMILES | tested on / at | fitted potency (µM) | remark |
|---|---|---|---|
| `CN1C[C@@H](NS(=O)(=O)N(C)C)C[C@@H]2c3cccc4c3c(cn4C)C[C@H]21` | CP297 | 10.69 | inhibitor, partial curve, poor fit |
| `CN1C[C@@H](NS(=O)(=O)N(C)C)C[C@@H]2c3cccc4c3c(cn4C)C[C@H]21` | CP192 | 13.46 | inhibitor, partial curve, poor fit |
| `CN1C[C@@H](NS(=O)(=O)N(C)C)C[C@@H]2c3cccc4c3c(cn4C)C[C@H]21` | CP329 | 10.69 | inhibitor, partial curve, poor fit |
| `CN1C[C@@H](NS(=O)(=O)N(C)C)C[C@@H]2c3cccc4c3c(cn4C)C[C@H]21` | CP211 | 21.33 | inhibitor, single point |
| `CN1C[C@@H](NS(=O)(=O)N(C)C)C[C@@H]2c3cccc4c3c(cn4C)C[C@H]21` | DIV30 | 19.01 | inhibitor, single point |
| `CN1C[C@@H](NS(=O)(=O)N(C)C)C[C@@H]2c3cccc4c3c(cn4C)C[C@H]21` | CP256 | 12.59 | inhibitor, single point |
| `CN1C[C@@H](NS(=O)(=O)N(C)C)C[C@@H]2c3cccc4c3c(cn4C)C[C@H]21` | CP269 | 21.33 | inhibitor, partial curve, poor fit |
| `CN1C[C@@H](NS(=O)(=O)N(C)C)C[C@@H]2c3cccc4c3c(cn4C)C[C@H]21` | CP237 | 15.85 | inhibitor, partial curve |
| `CN1C[C@@H](NS(=O)(=O)N(C)C)C[C@@H]2c3cccc4c3c(cn4C)C[C@H]21` | P93_24 | 11.22 | inhibitor, single point |
| `CN1C[C@@H](NS(=O)(=O)N(C)C)C[C@@H]2c3cccc4c3c(cn4C)C[C@H]21` | CP260 | 12.59 | inhibitor, single point |
| `CN1C[C@@H](NS(=O)(=O)N(C)C)C[C@@H]2c3cccc4c3c(cn4C)C[C@H]21` | CP335 | 12 | inhibitor, single point |
| `CN1C[C@@H](NS(=O)(=O)N(C)C)C[C@@H]2c3cccc4c3c(cn4C)C[C@H]21` | ICS | 11.22 | inhibitor, partial curve |
| `CN1C[C@@H](NS(=O)(=O)N(C)C)C[C@@H]2c3cccc4c3c(cn4C)C[C@H]21` | CP286 | 10 | inhibitor, single point |
| `CN1C[C@@H](NS(=O)(=O)N(C)C)C[C@@H]2c3cccc4c3c(cn4C)C[C@H]21` | Dd2 | 15.85 | inhibitor, partial curve, poor fit |
| `CNC(=O)[C@H](Cc1c[nH]c2ccccc12)NC(=O)[C@@H](CC(=O)NO)CC(C)C` | DIV14 | 16.94 | inhibitor, partial curve, poor fit |
| `CNC(=O)[C@H](Cc1c[nH]c2ccccc12)NC(=O)[C@@H](CC(=O)NO)CC(C)C` | P93_24 | 12.59 | inhibitor, single point |
| `CNC(=O)[C@H](Cc1c[nH]c2ccccc12)NC(=O)[C@@H](CC(=O)NO)CC(C)C` | DIV17 | 19.01 | inhibitor, single point |
| `CNC(=O)[C@H](Cc1c[nH]c2ccccc12)NC(=O)[C@@H](CC(=O)NO)CC(C)C` | CP191 | 11.22 | inhibitor, single point |
| `CNC(=O)[C@H](Cc1c[nH]c2ccccc12)NC(=O)[C@@H](CC(=O)NO)CC(C)C` | Dd2 | 10 | inhibitor, single point |
| `CNC(=O)[C@H](Cc1c[nH]c2ccccc12)NC(=O)[C@@H](CC(=O)NO)CC(C)C` | ICS | 7.943 | inhibitor, partial curve |
| `CNC(=O)[C@H](Cc1c[nH]c2ccccc12)NC(=O)[C@@H](CC(=O)NO)CC(C)C` | CP238 | 17.78 | inhibitor, single point |
| `CNC(=O)[C@H](Cc1c[nH]c2ccccc12)NC(=O)[C@@H](CC(=O)NO)CC(C)C` | CP268 | 19.01 | inhibitor, partial curve, poor fit |
| `CNC(=O)[C@H](Cc1c[nH]c2ccccc12)NC(=O)[C@@H](CC(=O)NO)CC(C)C` | CP237 | 11.22 | inhibitor, single point |
| `CNC(=O)[C@H](Cc1c[nH]c2ccccc12)NC(=O)[C@@H](CC(=O)NO)CC(C)C` | DIV30 | 12 | inhibitor, partial curve, poor fit |
| `CNC(=O)[C@H](Cc1c[nH]c2ccccc12)NC(=O)[C@@H](CC(=O)NO)CC(C)C` | CP286 | 11.22 | inhibitor, single point |
| `CNC(=O)[C@H](Cc1c[nH]c2ccccc12)NC(=O)[C@@H](CC(=O)NO)CC(C)C` | CP262 | 19.01 | inhibitor, single point |
| `CNC(=O)[C@H](Cc1c[nH]c2ccccc12)NC(=O)[C@@H](CC(=O)NO)CC(C)C` | TAB109 | 8.912 | inhibitor, single point |
| `CNC(=O)[C@H](Cc1c[nH]c2ccccc12)NC(=O)[C@@H](CC(=O)NO)CC(C)C` | CP194 | 12 | inhibitor, partial curve |

Some entries from above, unchanged:

| SMILES | tested on / at | fitted potency (µM) | remark |
|---|---|---|---|
| `CNC(=O)[C@H](Cc1c[nH]c2ccccc12)NC(=O)[C@@H](CC(=O)NO)CC(C)C` | DIV14 | 16.94 | inhibitor, partial curve, poor fit |
| `CNC(=O)[C@H](Cc1c[nH]c2ccccc12)NC(=O)[C@@H](CC(=O)NO)CC(C)C` | P93_24 | 12.59 | inhibitor, single point |
| `CNC(=O)[C@H](Cc1c[nH]c2ccccc12)NC(=O)[C@@H](CC(=O)NO)CC(C)C` | DIV17 | 19.01 | inhibitor, single point |